# Assay results: article PMC10146638 (Viruses, 2023)
# Results are given in words; binding and its absence hold for the method and conditions named.
# Target: OVA (UniProt P01012)
# Experiment: SPR; both purified
binder,measurement,value
WWHEKE [peptide number 15 (P15; WWHEKE)],binding,no binding
